From patent publication EP0541662B1 (A. MENARINI INDUSTRIE FARMACEUTICHE RIUNITE S.R.L., priority 1990, dated 1992)
HELM strings list residues between dots; [ac] is acetyl, [am] amide, other brackets name non-standard units. The same purity stands for every peptide and may come from a single statement.

Assays:
[1] = general procedure: peptide synthesis; MBHA resin; DCC, HOBt, BOP; details: whole synthesis, scale 0.45 mmol
[2] = Fmoc solid-phase peptide synthesis; DOD resin; DCC, HOBt, BOP; details: whole synthesis, UV 210 nm, scale 0.50 mmol
[3] = general procedure: peptide synthesis; PAM resin; DCC, HOBt, BOP; details: whole synthesis, UV 210 nm

PEPTIDE1{D.Y.[dW].V.[dW].[dW].A.[am]}$$$$V2.0
final HPLC purity ([1]; UV 210 nm): ≧ 99% | crude mass [1]: 0.250 g

PEPTIDE1{D.Y.[dW].V.[dW].[dW].K.[am]}$$$$V2.0
final HPLC purity [2]: ≧ 99%

PEPTIDE1{D.Y.[dW].V.[dW].[dW].R}$PEPTIDE1,PEPTIDE1,1:R1-7:R2$$$V2.0
final HPLC purity [3]: ≧ 99%
